# Data reported in PubChem BioAssay AID1347076 (National Center for Advancing Translational Sciences (NCATS), 2019).
# Hit rate of the full screen: of about 400,000 compounds, about 13,000 (3.2%) were called active. The shares of active, inactive and inconclusive entries below differ from those in the screen. Calls follow the shape of the dose curve; as a rule, active = well fitted cell-killing curve with a large enough effect; inconclusive = small, poorly fitted or top-dose-only effect, or effect the other way; inactive = flat fitted curve, though single readings scatter. Potencies of inconclusive entries are doubtful fits and often do not repeat.
# Experiment: qHTS assay for MDR1-selective chemotherapeutics: Primary screen using the drug-selected MDR subline cells KB-V1; also: nearly all actives have a fitted effect of over 60% in size
# Conditions: KB-V1 MDR cells viability, CellTiter-Glo, 72 h; activity change, negative = cytotoxicity: at 46.1 µM (top of the series)
# Outline: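 KB-V1 MDR subline cells in DMEM (phenol-red free, 10% FBS) exposed to compounds in qHTS concentration series for 72 h at 37 degrees C. Viability read by CellTiter-Glo luminescence; concentration-effect curves fitted after normalization and correction.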
# % is scaled to controls: 0 for no effect and ±100 for the full control effect; potency is read from the fitted curve at half-maximal effect.
Structure (SMILES),Potency,"activity change, negative = cytotoxicity"
COc1ccc(/C=C2\SC(=NCc3ccccc3)NC2=O)cc1,"inconclusive: 29.1 µM [cytotoxic, single point]",–
CCN(CC(=O)NC1CCS(=O)(=O)C1)c1nc(-c2cccnc2)nc2ccccc12 (centres undefined),"inconclusive: 0.58 µM [rising, full curve, poor fit]",–
CCCCNC(=O)[C@@H]1CC=C[C@@H]2CCN(C3CC3)C(=O)[C@@H]21,"inconclusive: 29.1 µM [rising, single point]",–
CN(c1cccc(NC(=O)c2ccccc2N(Cc2ccccc2)S(C)(=O)=O)c1)S(C)(=O)=O,–,inactive: -10.9%
Cc1ccc(C(=O)NCCCNc2ccc(C(F)(F)F)cc2[N+](=O)[O-])cc1,"inconclusive: 18.4 µM [cytotoxic, partial curve, poor fit]",–
O=C(Cc1ccc(OCc2ccccn2)cc1)NO,–,inactive: 6.1%
CCOC(=O)c1cc2c(=O)n3cccc(C)c3nc2n(Cc2ccco2)c1=NC(=O)c1ccc(C)cc1,–,inactive: 5.69%
COc1ccc(-c2cnc(SCC(=O)Nc3cc(C)on3)n2Cc2ccco2)cc1,–,inactive: -2.27%
O=C(c1ccc(=O)n(Cc2ccccc2)n1)N1CCN(C/C=C/c2ccccc2)CC1,–,inactive: -3.47%
CSCCC(c1nnnn1Cc1ccccc1)N1CCN(C/C=C/c2ccccc2)CC1 (centres undefined),–,inactive: -8.22%
CCCCNC(=O)c1nc(-c2cccs2)oc1-c1ccc(Cl)cc1,"inconclusive: 16.4 µM [cytotoxic, partial curve, poor fit]",–
COCCCNC(=O)c1ccc2c3c(onc13)-c1ccccc1C2=O,"inconclusive: 16.4 µM [cytotoxic, single point]",–
CC(=O)c1cccc(-c2ccnc3c2CC(C(=O)Nc2ccccc2)O3)c1 (centres undefined),active: 20.6 µM,–
COc1ccc(-c2c(C)c3ccc(O)c(CN4CCCC(C)C4)c3oc2=O)cc1OC (centres undefined),–,inactive: 1.66%
O=C(Cn1c(=O)n(Cc2nc(-c3ccccc3)no2)c(=O)c2ccccc21)Nc1cccc(Cl)c1,–,inactive: -15.4%
COc1ccc(S(=O)(=O)N2CCN(Cc3nc4ccc(C)cc4o3)CC2)cc1,–,inactive: 6.49%
COc1cccc(NC(=O)CSc2nc3ccccc3c(=O)n2Cc2cccs2)c1,active: 5.17 µM,–
COc1ccc(S(=O)(=O)CC(=O)c2cc(C)c(O)c(C)c2)cc1,–,inactive: -3.24%
Cc1cc(C)cc(C(=O)NCC(=O)NNC(=O)CSc2ccccc2F)c1,–,inconclusive: -4.94%
CCOc1ccc(N2C(=O)c3[nH]nc(-c4ccc(OC)cc4)c3C2c2cccs2)cc1 (centres undefined),"inconclusive: 29.1 µM [cytotoxic, single point]",–
CSc1cccc(N2CC(C(=O)N(Cc3nnc(-c4ccccc4Cl)o3)C3CC3)CC2=O)c1 (centres undefined),–,inactive: -20.8%
COc1ccc(-c2nnc(SCC(=O)Nc3ccc(C)c(C)c3)s2)cc1,–,inactive: 14.3%
O=c1[nH]c(/C=C/c2ccccc2F)nc2ccccc12,active: 2.59 µM,–
CCN(CC)C(=O)Oc1nnc(SC(C)C)n1-c1ccc(Cl)c(Cl)c1,"inconclusive: 1.64 µM [cytotoxic, full curve, poor fit]",–
COc1ccc(CN(C)C(=O)C(Cc2ccccc2)NC(=O)c2ccccc2)c(OC)c1OC (centres undefined),"inconclusive: 25.9 µM [cytotoxic, partial curve, poor fit]",–

# Among those listed so far, three have fluorine.
Structure (SMILES),Potency,"activity change, negative = cytotoxicity"
Cc1ccc(C(=O)NCCCNc2ccc(C(F)(F)F)cc2[N+](=O)[O-])cc1,"inconclusive: 18.4 µM [cytotoxic, partial curve, poor fit]",–
Cc1cc(C)cc(C(=O)NCC(=O)NNC(=O)CSc2ccccc2F)c1,–,inconclusive: -4.94%
O=c1[nH]c(/C=C/c2ccccc2F)nc2ccccc12,active: 2.59 µM,–

# Continued.

Structure (SMILES),Potency,"activity change, negative = cytotoxicity"
N#C/C(=N\Nc1cccc(C(F)(F)F)c1)C(=O)c1ccsc1,active: 3.26 µM,–
COCCCNC(=O)c1ccc2c(c1)N(Cc1ccccc1F)C(=O)c1ccccc1S2=O (centres undefined),"inconclusive: 18.4 µM [cytotoxic, single point]",–
O=C(O)C1C2OC3C(OC(=O)C31)C2Br (centres undefined),"inconclusive: 2.91 µM [rising, full curve]",–
CC(C)NC(=O)CSc1ccccc1C(=O)NCc1ccc2c(c1)OCO2,"inconclusive: 20.6 µM [cytotoxic, single point]",–
O=C(CSc1nnc(COc2ccc(Cl)cc2)o1)Nc1nccs1,–,inactive: -11.5%
CCOc1ccc2nc(SCC(=O)NC(=O)NCc3ccco3)sc2c1,–,inactive: 0%
CC(C)(c1ccccc1)c1ccc(OCCN)cc1,"inconclusive: 20.6 µM [cytotoxic, single point]",–
Oc1ccc(C[C@H]2CN([C@@H](Cc3cccc(O)c3)CN3CCC[C@@H]3CN3C(=S)NC[C@@H]3Cc3ccccc3)C(=S)N2CC2CCCCC2)cc1,–,inactive: 2.37%
O=C(c1cc(-c2ccncc2)nc2ccccc12)N1CCN(Cc2ccccc2)CC1,"inconclusive: 20.6 µM [cytotoxic, partial curve]",–
CC(C)c1cc(Cn2c3ccccc3c(=O)n2C(C)Cn2cc(COc3ccccc3)nn2)on1 (centres undefined),"inconclusive: 3.66 µM [cytotoxic, partial curve, poor fit]",–
Cc1sc2ncnc(NCc3cccs3)c2c1C,active: 2.59 µM,–
Cc1nc(-c2ccccc2)sc1C(=O)/C=C/c1ccccc1,"inconclusive: 32.6 µM [cytotoxic, partial curve, poor fit]",–
COc1ccccc1CN(Cc1cc2cc(C)ccc2[nH]c1=O)Cc1nnnn1CC1CCCO1 (centres undefined),active: 20.6 µM,–
CCCc1cc2c(=O)c(-c3ccc4c(c3)OCCO4)c(C)oc2cc1OS(C)(=O)=O,–,inactive: -1.37%
CSc1ccc(C(=O)C2CCCN(C(=O)c3csc(C(C)=O)c3)C2)cc1 (centres undefined),"inconclusive: 8.2 µM [cytotoxic, partial curve]",–
Cc1cccc(CSc2cccc3cccnc23)c1,"inconclusive: 29.1 µM [cytotoxic, single point]",–
CCCc1[nH]nc2c1C1(CCN(C(=O)OCc3ccccc3)CC1)C(C#N)=C(N)O2,"inconclusive: 16.4 µM [cytotoxic, partial curve, poor fit]",–
COc1ccc(Cl)cc1NC(=O)CN(C)Cc1ccc(OC)c(OC)c1,"inconclusive: 4.61 µM [cytotoxic, full curve]",–
Cc1ccc(-c2csc3nnc(SCC(=O)NCc4ccco4)n23)cc1,active: 9.2 µM,–
O=C(N/N=C\c1ccccn1)C1c2ccccc2Oc2ccccc21,–,inactive: -17.3%
O=c1c2oc3ccccc3c2[nH]c(=S)n1-c1ccccc1,"inconclusive: 18.4 µM [cytotoxic, single point]",–
CN1CCN(CCCNC(=O)Cn2ncc3c4ccccc4n(C)c3c2=O)CC1,–,inactive: 13.6%
CCCn1c2c(c(O)c(C(=O)Nc3ccccc3)c1=O)CCCC2,active: 14.6 µM,–
COc1cc(Cl)c(S(=O)(=O)NCCCn2ccnc2)cc1Cl,–,inactive: -12.4%
Cc1nn(C)c(C)c1S(=O)(=O)N(CC(=O)NCCCN1CCC(C)CC1)c1ccc(C(C)C)cc1,–,inactive: 0.977%

# Reformatted: results already given.
Structure (SMILES) | Potency | activity change, negative = cytotoxicity
CC(C)NC(=O)CSc1ccccc1C(=O)NCc1ccc2c(c1)OCO2 | inconclusive: 20.6 µM [cytotoxic, single point] | –
Cc1cccc(CSc2cccc3cccnc23)c1 | inconclusive: 29.1 µM [cytotoxic, single point] | –

# Next records follow.

Structure (SMILES),Potency,"activity change, negative = cytotoxicity"
CCCCCn1nc(C)c(/C=N/NC(=O)c2ccoc2C)c1C,"inconclusive: 20.6 µM [cytotoxic, single point]",–
CC(C)C[C@H]1CN=C(Nc2ccccc2)N1CCC(C)c1ccccc1 (some centres undefined),"inconclusive: 29.1 µM [rising, partial curve, poor fit]",–
Cc1nc2sc(-c3ccccc3)cc2c(=O)[nH]1,active: 16.4 µM,–
Cc1cc(/C=C2\C(=N)N3C(SCc4ccccc4)=NSC3=NC2=O)c(C)n1Cc1ccccc1,–,inactive: -9.4%
CCOc1ccc(NC(=NCc2ccc3c(c2)OCO3)SC2CC(=O)N(c3ccc(OCC)cc3)C2=O)cc1 (centres undefined),"inconclusive: 29.1 µM [cytotoxic, single point]",–
CCCCN1C(=O)C(=O)N(CC(=O)Nc2ccccc2C(C)=O)C1=O,–,inactive: 0%
CCN1CCN(c2cc(C)c3cc(NC(=S)NCCCOC)ccc3n2)CC1,"inconclusive: 20.6 µM [cytotoxic, single point]",–
C#CCN1c2ccccc2Sc2cccnc21,–,inactive: 0%
Cc1cn2c(=O)c(S(=O)(=O)Nc3ccc(F)cc3F)c(C)nc2s1,–,inactive: 3.22%
Cc1ccccc1C(=O)NCCn1cc(SCC(=O)NCC2CCCO2)c2ccccc21 (centres undefined),"inconclusive: 13 µM [cytotoxic, partial curve]",–
Cc1cc2c(cc1C)-n1nnnc1C(N1CCN(c3ncccc3C#N)CC1)C(=O)N2 (centres undefined),"inconclusive: 23.1 µM [cytotoxic, single point]",–
C=CCn1c(Cc2cccs2)nnc1SCC(=O)Nc1ccc(OC)c(OC)c1,active: 23.1 µM,–
Cc1ccc(C)c(C(O)c2ncc(-c3cccc(F)c3)[nH]2)c1 (centres undefined),–,inactive: 6.2%
Cc1cc(C)cc(C(=O)NCC(c2ccc(N(C)C)cc2)N2CCCC2)c1 (centres undefined),–,inactive: 4.23%
CC(CCc1ccccc1)NC(=O)c1ccc2nc(N3CCOCC3)sc2c1 (centres undefined),"inconclusive: 5.8 µM [cytotoxic, partial curve]",–
CC(O)(c1cccc(F)c1)c1nc(-c2cnc3ccccc3c2)cs1 (centres undefined),"inconclusive: 5.17 µM [cytotoxic, full curve]",–
O=c1c(Cc2ccc(F)cc2)c(O)ccn1Cc1ccc(F)cc1,"inconclusive: 29.1 µM [cytotoxic, single point]",–
CN1CCC(=C(c2ccccc2)c2ccc(Br)cc2)CC1,"inconclusive: 20.6 µM [cytotoxic, single point]",–
O=C(CCC1CCCCC1)NCCS(=O)(=O)N1CCN(c2ccccc2)CC1,"inconclusive: 13 µM [cytotoxic, partial curve]",–
Cn1nc(-c2ccccc2)c(CO)c1Oc1ccc(F)cc1,–,inactive: -18.1%
O=C(CCn1nc(-c2ccc(Cl)cc2)ccc1=O)NCCc1ccccc1,–,inconclusive: -69.9%
O=C(Nc1ccccc1F)C(=O)c1cn(CC(=O)N2CCCCC2)c2ccccc12,"inconclusive: 20.6 µM [cytotoxic, partial curve, poor fit]",–
O=C(O)c1cc2nc(-c3ccccc3)cc(-c3ccccc3)n2n1,–,inactive: 16%
CN(C)S(=O)(=O)c1ccc2c(c1)/C(=C/c1cc3c([nH]1)CCCC3)C(=O)N2,"inconclusive: 7.31 µM [cytotoxic, partial curve]",–
